From PMC6411938
Results are given in words; binding and its absence hold for the method and conditions named. Binding seen in cells or lysates may run through a third protein. A result given as binding can be weak or reduced; the word gives no strength. Tags and fused reporters may be left off the sequences shown.

What was measured:
[1] = target: T1, FLAG-tagged TDRKH (Tudor and KH domain-containing protein), full-length mouse (mouse) (UniProt Q80VL1); experiment: co-IP; HEK293T cells transfected with the indicated plasmids; after 48 h lysates treated with or without RNase A (500 ug/ml); immunoprecipitation with anti-FLAG M2 Affinity Gel; FLAG- or GFP-tagged proteins detected by Western blotting
T1 sequence: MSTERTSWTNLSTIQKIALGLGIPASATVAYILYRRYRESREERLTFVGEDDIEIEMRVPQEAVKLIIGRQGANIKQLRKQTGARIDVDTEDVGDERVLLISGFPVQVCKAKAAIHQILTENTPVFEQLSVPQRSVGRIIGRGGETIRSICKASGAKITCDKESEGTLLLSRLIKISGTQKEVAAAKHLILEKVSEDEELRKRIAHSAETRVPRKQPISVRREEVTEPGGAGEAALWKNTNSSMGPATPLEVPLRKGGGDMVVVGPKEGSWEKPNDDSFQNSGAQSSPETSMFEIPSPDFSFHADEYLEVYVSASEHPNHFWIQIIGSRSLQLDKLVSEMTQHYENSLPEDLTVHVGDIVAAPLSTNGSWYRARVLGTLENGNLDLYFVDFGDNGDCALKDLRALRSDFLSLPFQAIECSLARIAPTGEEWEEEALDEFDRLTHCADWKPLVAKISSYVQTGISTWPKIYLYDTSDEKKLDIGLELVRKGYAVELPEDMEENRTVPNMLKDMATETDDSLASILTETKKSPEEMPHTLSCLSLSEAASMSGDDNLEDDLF

[2] = target: T2, FLAG-tagged PNLDC1, full-length mouse (mouse) (UniProt B2RXZ1); experiment: as above
T2 sequence: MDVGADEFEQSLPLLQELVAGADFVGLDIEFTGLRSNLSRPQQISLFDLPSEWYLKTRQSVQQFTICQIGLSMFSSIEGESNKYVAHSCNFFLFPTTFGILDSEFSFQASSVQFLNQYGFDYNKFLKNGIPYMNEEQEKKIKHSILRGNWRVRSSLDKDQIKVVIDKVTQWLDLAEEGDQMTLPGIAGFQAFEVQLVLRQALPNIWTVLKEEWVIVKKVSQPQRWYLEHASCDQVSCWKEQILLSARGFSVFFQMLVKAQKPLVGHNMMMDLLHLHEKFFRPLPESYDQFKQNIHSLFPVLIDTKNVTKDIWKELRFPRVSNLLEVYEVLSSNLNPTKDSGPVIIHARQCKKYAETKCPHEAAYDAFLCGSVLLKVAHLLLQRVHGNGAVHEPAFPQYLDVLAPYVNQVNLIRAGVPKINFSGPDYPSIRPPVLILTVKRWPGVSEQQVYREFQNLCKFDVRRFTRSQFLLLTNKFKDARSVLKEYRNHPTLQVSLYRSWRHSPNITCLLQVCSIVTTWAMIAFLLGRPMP

binding [1]	binding [2]	Substance
binds	binds	GFP-MILI, full-length mouse
binds	binds	GFP-MIWI, full-length mouse
